Values from PubChem BioAssay AID1259254 (NCATS, 2017).
The whole screen tested about 59,000 reagents; this is a random part of them. About 1,550 of them (2.6%) count as active. 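G2 share is only a proxy for re-replication; each gene was hit by three separate siRNAs, and active genes were retested.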 Raw values are not corrected between plates. Not given: the amount of reagent.

Assay: 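Finding genes that stop cells copying their DNA twice in one cycle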 (primary screen)
Cell system: human HCT116 colorectal cancer cells
Reagents: single siRNA against human genes
Timing: 3 days
Measured: 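Imaged Hoechst DNA stain sorts each cell into a cycle phase by DNA amount; per plate, G2 fraction set to 0% for non-targeting and 100% for GMNN siRNA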
Direction: G2 robust z-score and G2 cells, % of GMNN control: higher = more G2 cells, more excess DNA replication; raw share of cells in G2: higher = larger share of cells with G2 DNA content
Hit rule: 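Active siRNAs have a G2 robust z of 5 or more median absolute deviations over the median, which in these data means about 38% or higher of GMNN control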

| target | PubChem SID | G2 robust z-score | G2 cells, % of GMNN control | raw share of cells in G2 (%) | Call |
| --- | --- | --- | --- | --- | --- |
| LANCL1 | SID160728146 | 0.12 | 3.81 | 7.21 | inactive |
| LANCL1 | SID160728147 | 3.41 | 26.9 | 13.9 | inactive |
| LANCL1 | SID160728148 | -1.19 | -5.39 | 1.62 | inactive |
| EPHA3 | SID160760837 | -1.07 | -4.58 | 4.09 | inactive |
| EPHA3 | SID160760848 | 0.0886 | 3.59 | 6.62 | inactive |
| EPHA3 | SID160760858 | 0 | 2.97 | 5.07 | inactive |
| ZNF28 | SID160719044 | 1.48 | 13.4 | 7.97 | inactive |
| ZNF28 | SID160719045 | -1.21 | -5.53 | 3.53 | inactive |
| ZNF28 | SID160719046 | 0.0293 | 3.17 | 4.67 | inactive |
| CT47A11 | SID160762304 | 0.129 | 3.87 | 4.98 | inactive |
| CT47A11 | SID160762305 | 0.0218 | 3.12 | 4.2 | inactive |
| CT47A11 | SID160762306 | -0.275 | 1.03 | 3.52 | inactive |
| CLDND1 | SID160745096 | 0.244 | 4.68 | 6.19 | inactive |
| CLDND1 | SID160745097 | 0.867 | 9.07 | 8.79 | inactive |
| CLDND1 | SID160745098 | -0.139 | 1.99 | 3.66 | inactive |
| TXNDC8 | SID160762289 | 1.13 | 10.9 | 11.2 | inactive |
| TXNDC8 | SID160762290 | -0.209 | 1.5 | 5.25 | inactive |
| TXNDC8 | SID160762291 | -0.533 | -0.784 | 4.37 | inactive |
| SERPINB2 | SID160713802 | -0.69 | -1.89 | 2.55 | inactive |
| SERPINB2 | SID160713803 | -0.405 | 0.115 | 5.25 | inactive |
| SERPINB2 | SID160713804 | -0.618 | -1.38 | 4.19 | inactive |
| FOXO4 | SID160777314 | 0.686 | 7.8 | 8.56 | inactive |
| FOXO4 | SID160777315 | 1.48 | 13.4 | 10.5 | inactive |
| FOXO4 | SID160777316 | 0.228 | 4.57 | 4.7 | inactive |
| AEBP2 | SID160755913 | 1.76 | 15.4 | 8.38 | inactive |
| AEBP2 | SID160755915 | -0.247 | 1.23 | 3.59 | inactive |
| AEBP2 | SID160755916 | 0.386 | 5.68 | 5.52 | inactive |
| RPL27AP2 | SID160766645 | -0.129 | 2.06 | 4.56 | inactive |
| RPL27AP2 | SID160766646 | -0.782 | -2.53 | 2.51 | inactive |
| RPL27AP2 | SID160766647 | -0.145 | 1.95 | 5.6 | inactive |
| TAS2R50 | SID160762636 | -0.339 | 0.585 | 3.85 | inactive |
| TAS2R50 | SID160762637 | 0.337 | 5.34 | 5.11 | inactive |
| TAS2R50 | SID160762638 | 3.17 | 25.3 | 10.9 | inactive |
| UFM1 | SID160733514 | 3.93 | 30.6 | 13.3 | inactive |
| UFM1 | SID160741023 | 2.08 | 17.6 | 9.91 | inactive |
| UFM1 | SID160741024 | 1.52 | 13.6 | 10 | inactive |
| CSRNP3 | SID160750000 | 0.154 | 4.05 | 6.13 | inactive |
| CSRNP3 | SID160750002 | 0.311 | 5.16 | 6.56 | inactive |
| CSRNP3 | SID160750003 | -0.222 | 1.4 | 2.76 | inactive |
| ALOX15B | SID160716779 | 1.12 | 10.9 | 8.42 | inactive |
| ALOX15B | SID160716789 | 0.661 | 7.62 | 7.78 | inactive |
| ALOX15B | SID160716800 | 0.435 | 6.03 | 6.24 | inactive |
| PMCH | SID160714527 | -0.859 | -3.08 | 3.66 | inactive |
| PMCH | SID160714528 | 0.143 | 3.97 | 5.79 | inactive |
| PMCH | SID160714529 | 0.13 | 3.88 | 4.76 | inactive |
| MRPL58 | SID160775513 | -0.399 | 0.159 | 5.38 | inactive |
| MRPL58 | SID160775514 | 2.89 | 23.3 | 12.6 | inactive |
| MRPL58 | SID160775515 | -0.724 | -2.12 | 2.69 | inactive |

The list goes on, starting with the last 5 of the part before.
| target | PubChem SID | G2 robust z-score | G2 cells, % of GMNN control | raw share of cells in G2 (%) | Call |
| --- | --- | --- | --- | --- | --- |
| PMCH | SID160714528 | 0.143 | 3.97 | 5.79 | inactive |
| PMCH | SID160714529 | 0.13 | 3.88 | 4.76 | inactive |
| MRPL58 | SID160775513 | -0.399 | 0.159 | 5.38 | inactive |
| MRPL58 | SID160775514 | 2.89 | 23.3 | 12.6 | inactive |
| MRPL58 | SID160775515 | -0.724 | -2.12 | 2.69 | inactive |
| TNFRSF18 | SID160724194 | -1.31 | -6.27 | 3.06 | inactive |
| TNFRSF18 | SID160724196 | 1.12 | 10.8 | 9.46 | inactive |
| TNFRSF18 | SID160727865 | -0.108 | 2.21 | 5.5 | inactive |
| KLF5 | SID160729179 | -0.471 | -0.349 | 3.32 | inactive |
| KLF5 | SID160729190 | -0.646 | -1.58 | 4.11 | inactive |
| KLF5 | SID160729199 | -0.481 | -0.416 | 2.96 | inactive |
| FURIN | SID160778523 | 4.07 | 31.6 | 16.6 | inactive |
| FURIN | SID160778524 | 3.91 | 30.5 | 15.7 | inactive |
| FURIN | SID160778525 | 1.01 | 10.1 | 7.67 | inactive |
| LOC441347 (retired record) | SID160725436 | -0.72 | -2.1 | 2.81 | inactive |
| LOC441347 (retired record) | SID160728013 | -0.537 | -0.809 | 3.11 | inactive |
| LOC441347 (retired record) | SID160728014 | 0.212 | 4.46 | 4.64 | inactive |
| NR1I2 | SID160720982 | -0.531 | -0.77 | 5.42 | inactive |
| NR1I2 | SID160720984 | -1.23 | -5.66 | 2.61 | inactive |
| NR1I2 | SID160720985 | 5.92 | 44.6 | 18.7 | active |
| SERBP1 | SID160730918 | -0.192 | 1.62 | 4.72 | inactive |
| SERBP1 | SID160737676 | -0.00229 | 2.95 | 4.96 | inactive |
| SERBP1 | SID160737677 | 1.19 | 11.3 | 11.3 | inactive |
| HCCS | SID160774867 | -0.712 | -2.04 | 3.45 | inactive |
| HCCS | SID160774868 | -0.964 | -3.82 | 3.66 | inactive |
| HCCS | SID160774869 | -0.932 | -3.59 | 4.32 | inactive |
| ROPN1B | SID160759190 | 1.68 | 14.8 | 8.78 | inactive |
| ROPN1B | SID160759191 | -1.1 | -4.77 | 1.44 | inactive |
| ROPN1B | SID160759192 | -0.277 | 1.02 | 3.42 | inactive |
| FTHL17 | SID160741515 | -0.825 | -2.84 | 2.59 | inactive |
| FTHL17 | SID160741516 | -0.292 | 0.912 | 4.66 | inactive |
| FTHL17 | SID160741517 | 0.634 | 7.43 | 5.65 | inactive |
| ASGR1 | SID160720676 | -0.421 | 0.00612 | 4.72 | inactive |
| ASGR1 | SID160720687 | -1.34 | -6.46 | 2.78 | inactive |
| ASGR1 | SID160731236 | -1.23 | -5.69 | 1.87 | inactive |
| PKMYT1 | SID160724214 | 0.127 | 3.86 | 6.79 | inactive |
| PKMYT1 | SID160724215 | 0.0553 | 3.36 | 4.76 | inactive |
| PKMYT1 | SID160732132 | -0.169 | 1.78 | 5.84 | inactive |
| SSB | SID160717371 | -1.04 | -4.38 | 2.51 | inactive |
| SSB | SID160717372 | -0.766 | -2.43 | 4.87 | inactive |
| SSB | SID160717374 | -0.271 | 1.06 | 4.91 | inactive |
| DYNLL1 | SID160720525 | -0.312 | 0.769 | 4.98 | inactive |
| DYNLL1 | SID160720526 | -1.09 | -4.69 | 3.62 | inactive |
| DYNLL1 | SID160720527 | -0.0679 | 2.49 | 5.67 | inactive |
